The exact form of at least one protein or probe is not confirmed. For some assays here: No signal at the amounts used counts as a negative.
Experiments:
[1] = system: MmsR (LysR-type transcriptional regulator) (Pseudomonas denitrificans); experiment: footprint; conditions: DNase I, capillary electrophoresis; O1 and O2 protected; MmsR 0-1.2 uM; purified recombinant protein; protein details: C-terminal 6xHis, expressed in E. coli BL21
[2] = system: MmsR (LysR-type transcriptional regulator) (Pseudomonas denitrificans); experiment: EMSA; conditions: data not shown; purified recombinant protein; protein details: C-terminal 6xHis, expressed in E. coli BL21

CCGCAGGTTGTCCCAGTCCATGTCAGCCTCAGCGCACCTCGAATGTGCAAAAACGCAGACCATACTTGCACATCACCGCATTGAGTACATCAAAAATGCACTGTTAGGATCGATCCAGACAACAAAAAAGCCACAGGCTGGGAGAATCCCGATGACCGCAACTGCCCCG (double strand) [DNase I footprinting fragment]
binding result [1]: binds

GCCCCCGCCTACCCGCCCCAGCCACCCCGGACTCAGCAAGGATGCTGGCCCGGGCCTGGGCGGAGACGTCTTTCGCGCCCGACCATCAGAACAAGAGGACAACCCC (double strand) [PhbdH-4 promoter region]
binding result [2]: no binding
